Test results taken from PMC3140482.
These are yes or no findings as the source states them, for the method shown. Binding seen in cells or lysates may run through a third protein. Some binding calls cover weakened binding; strength is not graded here. Tags and fused reporters may be left off the sequences shown.

Chains of the proteins cited; added tags and fusions are not shown.
UniProt Q07812: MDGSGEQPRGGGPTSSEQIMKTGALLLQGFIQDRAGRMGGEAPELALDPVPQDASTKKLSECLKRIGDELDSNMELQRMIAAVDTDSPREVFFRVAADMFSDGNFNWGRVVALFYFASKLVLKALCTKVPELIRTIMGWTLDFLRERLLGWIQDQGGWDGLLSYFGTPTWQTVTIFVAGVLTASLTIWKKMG

Target: Bax (human (endogenous in SK-N-BE(2)-M17)) (UniProt Q07812)
Experiment: co-IP; M17 cell lysates (0.5% NP-40, 150 mM NaCl, 10 mM Tris-HCl pH 7.4) precipitated overnight at 4C with rabbit polyclonal anti-Bax or rabbit IgG and Protein G Sepharose; blotted with anti-14-3-3θ or anti-V5

| Binder | binding |
| --- | --- |
| endogenous 14-3-3θ (protein, UniProt P27348 1-245) MEKTELIQKAKLAEQAERYDDMATCMKAVTEQGAELSNEERNLLSVAYKNVVGGRRSAWRVISSIEQKTDTSDKKLQLIKDYREKVESELRSICTTVLELLDKYLIANATNPESKVFYLKMKGDYFRYLAEVACGDDRKQTIDNSQGAYQEAFDISKKEMQPTHPIRLGLALNFSVFYYEILNNPELACTLAKTAFDEAIAELDTLNEDSYKDSTLIMQLLRDNLTLWTSDSAGEECDAAEGAEN | binds |
| full-length 14-3-3θ tagged with V5-His (protein, UniProt P27348 1-245) MEKTELIQKAKLAEQAERYDDMATCMKAVTEQGAELSNEERNLLSVAYKNVVGGRRSAWRVISSIEQKTDTSDKKLQLIKDYREKVESELRSICTTVLELLDKYLIANATNPESKVFYLKMKGDYFRYLAEVACGDDRKQTIDNSQGAYQEAFDISKKEMQPTHPIRLGLALNFSVFYYEILNNPELACTLAKTAFDEAIAELDTLNEDSYKDSTLIMQLLRDNLTLWTSDSAGEECDAAEGAEN | binds |
